Data as given in patent publication US20150147310A1.
These are yes or no findings as the source states them, for the method shown. In cells and extracts the contact can be indirect. Some results given as binding are weak or reduced against the parent protein; the word gives no strength. Tags and fused reporters may be left off the sequences shown.

Protein sequences, listed by entry. Tags and fused reporters are not part of them. Residues count along the entry.
UniProt Q91ZX7, residues 20-4545: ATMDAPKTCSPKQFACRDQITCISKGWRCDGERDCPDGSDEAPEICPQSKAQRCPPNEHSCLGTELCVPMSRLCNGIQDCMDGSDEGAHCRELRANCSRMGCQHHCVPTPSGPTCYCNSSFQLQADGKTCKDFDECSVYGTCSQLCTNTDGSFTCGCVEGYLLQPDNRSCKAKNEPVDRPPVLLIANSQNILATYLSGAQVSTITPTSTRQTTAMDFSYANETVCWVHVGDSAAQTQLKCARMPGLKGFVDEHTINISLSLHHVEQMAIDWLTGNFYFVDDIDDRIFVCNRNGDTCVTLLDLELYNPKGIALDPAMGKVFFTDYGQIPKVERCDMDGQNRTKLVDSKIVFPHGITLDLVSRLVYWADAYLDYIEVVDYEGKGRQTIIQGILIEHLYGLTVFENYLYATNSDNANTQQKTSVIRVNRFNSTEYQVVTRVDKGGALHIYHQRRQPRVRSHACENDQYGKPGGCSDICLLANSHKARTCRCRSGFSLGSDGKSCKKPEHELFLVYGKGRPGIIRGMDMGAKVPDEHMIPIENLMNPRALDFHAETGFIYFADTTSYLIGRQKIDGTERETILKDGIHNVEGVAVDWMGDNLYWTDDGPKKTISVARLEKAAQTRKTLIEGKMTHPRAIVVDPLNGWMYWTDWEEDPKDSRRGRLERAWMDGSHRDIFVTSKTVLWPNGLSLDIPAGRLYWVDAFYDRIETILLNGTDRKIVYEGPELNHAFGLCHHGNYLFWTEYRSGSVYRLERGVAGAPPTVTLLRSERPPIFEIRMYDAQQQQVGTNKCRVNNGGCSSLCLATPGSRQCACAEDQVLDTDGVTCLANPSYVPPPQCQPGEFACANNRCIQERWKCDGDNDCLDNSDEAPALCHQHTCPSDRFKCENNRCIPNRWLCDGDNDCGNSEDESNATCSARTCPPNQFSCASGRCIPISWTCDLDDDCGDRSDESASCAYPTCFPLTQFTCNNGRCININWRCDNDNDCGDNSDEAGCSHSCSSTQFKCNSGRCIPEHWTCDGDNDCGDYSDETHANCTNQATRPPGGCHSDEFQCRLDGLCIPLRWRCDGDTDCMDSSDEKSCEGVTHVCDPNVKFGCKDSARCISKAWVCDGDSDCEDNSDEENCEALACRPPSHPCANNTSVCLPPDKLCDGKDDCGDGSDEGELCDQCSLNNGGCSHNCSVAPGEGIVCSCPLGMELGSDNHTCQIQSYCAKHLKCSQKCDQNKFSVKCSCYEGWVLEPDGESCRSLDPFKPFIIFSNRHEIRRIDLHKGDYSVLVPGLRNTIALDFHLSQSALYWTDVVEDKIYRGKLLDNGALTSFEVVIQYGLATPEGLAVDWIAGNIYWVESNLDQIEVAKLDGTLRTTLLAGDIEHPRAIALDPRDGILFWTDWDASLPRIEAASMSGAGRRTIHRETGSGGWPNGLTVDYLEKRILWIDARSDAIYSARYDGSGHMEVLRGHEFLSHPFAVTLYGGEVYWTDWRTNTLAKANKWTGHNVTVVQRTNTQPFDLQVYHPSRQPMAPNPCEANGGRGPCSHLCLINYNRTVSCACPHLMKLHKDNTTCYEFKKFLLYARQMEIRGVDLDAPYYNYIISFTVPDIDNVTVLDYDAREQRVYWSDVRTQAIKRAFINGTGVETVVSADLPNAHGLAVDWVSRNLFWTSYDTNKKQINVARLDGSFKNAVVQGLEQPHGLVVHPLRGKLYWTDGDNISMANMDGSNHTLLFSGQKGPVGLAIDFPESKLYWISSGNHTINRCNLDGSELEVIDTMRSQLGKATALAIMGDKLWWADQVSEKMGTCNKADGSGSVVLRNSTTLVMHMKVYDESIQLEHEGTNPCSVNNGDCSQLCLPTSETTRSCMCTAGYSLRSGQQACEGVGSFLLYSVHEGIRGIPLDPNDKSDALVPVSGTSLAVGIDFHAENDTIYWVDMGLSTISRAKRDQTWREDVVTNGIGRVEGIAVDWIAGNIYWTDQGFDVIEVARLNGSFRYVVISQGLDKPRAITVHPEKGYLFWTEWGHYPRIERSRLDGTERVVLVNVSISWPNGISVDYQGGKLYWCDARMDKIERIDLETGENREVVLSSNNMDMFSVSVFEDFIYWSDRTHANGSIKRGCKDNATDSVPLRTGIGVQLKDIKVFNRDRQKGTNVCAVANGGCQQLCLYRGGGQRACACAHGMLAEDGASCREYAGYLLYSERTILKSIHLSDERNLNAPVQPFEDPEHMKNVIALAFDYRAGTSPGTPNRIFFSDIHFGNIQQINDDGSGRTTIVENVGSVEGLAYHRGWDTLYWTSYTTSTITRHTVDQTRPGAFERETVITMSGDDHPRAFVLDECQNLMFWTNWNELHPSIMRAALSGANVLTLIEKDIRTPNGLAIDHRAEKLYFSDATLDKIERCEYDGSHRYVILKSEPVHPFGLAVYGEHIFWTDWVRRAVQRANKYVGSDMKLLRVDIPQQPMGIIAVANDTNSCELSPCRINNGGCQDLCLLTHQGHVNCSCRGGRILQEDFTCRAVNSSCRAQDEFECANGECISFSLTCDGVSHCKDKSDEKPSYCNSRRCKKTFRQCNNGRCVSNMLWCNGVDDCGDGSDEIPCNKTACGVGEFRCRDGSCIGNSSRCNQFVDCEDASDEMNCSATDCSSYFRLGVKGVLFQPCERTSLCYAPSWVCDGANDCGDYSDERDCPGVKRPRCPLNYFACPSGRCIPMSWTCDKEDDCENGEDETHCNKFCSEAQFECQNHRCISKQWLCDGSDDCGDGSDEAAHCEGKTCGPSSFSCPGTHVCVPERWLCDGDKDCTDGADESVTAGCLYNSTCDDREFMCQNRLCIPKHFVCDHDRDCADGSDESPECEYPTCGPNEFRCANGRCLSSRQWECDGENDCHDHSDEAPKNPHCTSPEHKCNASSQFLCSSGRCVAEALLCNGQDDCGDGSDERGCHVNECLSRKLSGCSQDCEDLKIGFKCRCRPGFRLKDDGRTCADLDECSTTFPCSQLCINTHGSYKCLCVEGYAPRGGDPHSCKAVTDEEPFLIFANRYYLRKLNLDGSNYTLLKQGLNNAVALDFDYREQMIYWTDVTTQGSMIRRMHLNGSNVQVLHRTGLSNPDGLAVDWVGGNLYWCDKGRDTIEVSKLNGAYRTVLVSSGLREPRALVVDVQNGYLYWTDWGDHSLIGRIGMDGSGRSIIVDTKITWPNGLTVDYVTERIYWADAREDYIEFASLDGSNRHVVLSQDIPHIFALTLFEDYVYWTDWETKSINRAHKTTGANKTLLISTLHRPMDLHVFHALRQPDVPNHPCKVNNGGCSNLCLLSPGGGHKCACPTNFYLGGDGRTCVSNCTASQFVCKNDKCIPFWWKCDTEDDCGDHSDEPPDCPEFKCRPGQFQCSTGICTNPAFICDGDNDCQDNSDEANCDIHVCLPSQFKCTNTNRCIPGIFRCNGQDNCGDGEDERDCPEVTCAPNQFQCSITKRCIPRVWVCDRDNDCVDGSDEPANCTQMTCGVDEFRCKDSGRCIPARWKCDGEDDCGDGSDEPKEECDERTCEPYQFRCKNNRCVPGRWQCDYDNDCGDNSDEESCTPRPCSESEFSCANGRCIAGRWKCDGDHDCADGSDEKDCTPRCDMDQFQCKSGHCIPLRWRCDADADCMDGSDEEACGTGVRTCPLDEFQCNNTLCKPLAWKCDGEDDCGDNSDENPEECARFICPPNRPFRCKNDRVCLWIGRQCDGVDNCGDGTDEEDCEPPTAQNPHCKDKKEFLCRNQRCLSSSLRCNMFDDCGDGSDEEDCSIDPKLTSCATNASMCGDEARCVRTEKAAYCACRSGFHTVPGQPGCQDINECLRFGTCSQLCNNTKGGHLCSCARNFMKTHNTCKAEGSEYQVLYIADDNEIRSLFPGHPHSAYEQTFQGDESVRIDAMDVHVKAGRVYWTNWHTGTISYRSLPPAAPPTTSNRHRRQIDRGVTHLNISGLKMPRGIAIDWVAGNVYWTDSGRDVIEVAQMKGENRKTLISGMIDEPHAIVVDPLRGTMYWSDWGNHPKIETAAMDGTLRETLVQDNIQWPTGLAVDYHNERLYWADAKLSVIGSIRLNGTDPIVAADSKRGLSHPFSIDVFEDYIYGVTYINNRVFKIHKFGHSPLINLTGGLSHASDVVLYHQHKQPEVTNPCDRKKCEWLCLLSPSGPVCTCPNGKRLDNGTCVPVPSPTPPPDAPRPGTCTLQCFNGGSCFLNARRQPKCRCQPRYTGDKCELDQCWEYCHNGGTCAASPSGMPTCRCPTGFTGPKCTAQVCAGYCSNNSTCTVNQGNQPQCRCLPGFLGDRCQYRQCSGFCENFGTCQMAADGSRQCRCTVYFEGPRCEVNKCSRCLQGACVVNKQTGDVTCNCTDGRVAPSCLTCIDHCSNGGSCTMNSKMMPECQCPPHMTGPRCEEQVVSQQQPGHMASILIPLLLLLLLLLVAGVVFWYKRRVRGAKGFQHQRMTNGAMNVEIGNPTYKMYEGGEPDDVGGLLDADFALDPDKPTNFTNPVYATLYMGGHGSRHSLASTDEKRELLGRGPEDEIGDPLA

Experiments:
[1] = target: LRP1 (in RAW 264.7 cells) (UniProt Q91ZX7); experiment: co-immunoprecipitation from RAW 264.7 cells with anti-IDUA antibody, western blot for LRP1
[2] = target: LRP1 (in RAW 264.7 cells) (UniProt Q91ZX7); experiment: co-immunoprecipitation, western blots (legend of FIG. 14B)

binding [1]: binds
binding [2]: binds
B1: An2-IDUA (Angiopep-2 fused to human alpha-L-iduronidase) (enzyme)
chain: TFFYGGSRGKRNNFKTEEYEAPHLVHVDAARALWPLRRFWRSTGFCPPLPHSQADQYVLSWDQQLNLAYVGAVPHRGIKQVRTHWLLELVTTRGSTGRGLSYNFTHLDGYLDLLRENQLLPGFELMGSASGHFTDFEDKQQVFEWKDLVSSLARRYIGRYGLAHVSKWNFETWNEPDHHDFDNVSMTMQGFLNYYDACSEGLRAASPALRLGGPGDSFHTPPRSPLSWGLLRHCHDGTNFFTGEAGVRLDYISLHRKGARSSISILEQEKVVAQQIRQLFPKFADTPIYNDEADPLVGWSLPQPWRADVTYAAMVVKVIAQHQNLLLANTTSAFPYALLSNDNAFLSYHPHPFAQRTLTARFQVNNTRPPHVQLLRKPVLTAMGLLALLDEEQLWAEVSQAGTVLDSNHTVGVLASAHRPQGPADAWRAAVLIYASDDTRAHPNRSVAVTLRLRGVPPGPGLVYVTRYLDNGLCSPDGEWRRLGRPVFPTAEQFRRMRAAEDPVAAAPRPLPAGGRLTLRPALRLPSLLLVHVCARPEKPPGQVTRLRALPLTQGQLVLVWSDEHVGSKCLWTYEIQFSQDGKAYTPVSRKPSTFNLFVFSPDTGAVSGSYRVRALDYWARPGPFSDPVPYLEVPVPRGPPSPGNP
